In series [1] the test system is MDA-MB-231 (human mammary adenocarcinoma) cell line. The experiment in a line: sulforhodamine B (SRB) cytotoxicity assay on MDA-MB-231. Format: cell-based. The settings on record: MDA-MB-231 compared to normal cell line COS-7. The protocol: (§1) The compounds were screened in vitro against two cancer cell lines, MCF-7 and MDA-MB-231 (human mammary adenocarcinoma), and the normal cell line Cos-7 (African green monkey kidney fibroblast). The MCF-7 and MDA-MB231 cell lines were cultured in RPMI-1640 medium, and Cos-7 was cultured in DMEM (Dulbecco's Modified Eagle's Medium) and supplemented with 10% of fetal bovine serum, 2 mM L-glutamine, 10000 units/ml penicillin G sodium, 10000 μg/ml streptomycin sulfate, 25 μg amphotericin B (Gibco), and 1% of nonessential amino acids (Gibco). The cell lines were maintained at 37°C in a humidified atmosphere with 5% CO2. The viability of the cells used in the experiments exceeded 95%, as determined with trypan blue.
(§2) The human tumor cytotoxicity was assessed using the protein-binding dye sulforhodamine B (SRB) in a microculture assay to measure the cell growth as described by. The human tumors and normal cells were treated with the complexes. The cells were removed from the tissue culture flask by treatment with trypsin and diluted with fresh media from the cell suspension to 100 μl containing 5000–10000 cells per well. The cells were then pipetted into 96 microliter plates (Costar) and incubated at 37°C for 24 h in a 5% CO2 atmosphere. Subsequently, 100 μl of a solution of the corresponding organotin complex at different concentrations was added to each well. […] After the incubation period, the cells were fixed to the plastic substratum by the addition of 50 μl of cold trichloroacetic acid (50% aqueous).
(§3) The plates were incubated at 4°C for one hour, washed with tap water, and air-dried. The addition of […] stained trichloroacetic acid-fixed cells. The free SRB was removed by washing with 1% aqueous acetic acid, the plates were air-dried, and the dyed was solubilized by adding ten mM unbuffered Tris base (100 μl). The plates were placed on a shaker for 10 min, and the absorption was measured at 515 nm using an ELISA plate reader (Bio-Tex Instruments).
Background: The SRB assay estimates cell density from bound dye.

The next series relates to ss-DNA. Put plainly: isothermal titration calorimetry (ITC). Format: binding. The settings on record: 25 °C. A general note: In ITC the heat of successive injections is recorded.
Series [2] deals with MCF-7 (human mammary adenocarcinoma) cell line. Put plainly: sulforhodamine B (SRB) cytotoxicity assay on MCF-7. Particulars: MCF-7 compared to normal cell line COS-7. The series is classed as cell-based. The protocol:
as §1, §2, §3

Here are results for 16 molecules from article PMC10620030, “New Organotin (IV) Compounds Derived from Dehydroacetic Acid and Thiosemicarbazides: Synthesis, Rational Design, Cytotoxic Evaluation, and Molecular Docking Simulation” (Bioinorganic Chemistry and Applications, 2023).

For `CC1=NN=C(N)[S][Sn]([c]2ccccc2)([c]2ccccc2)[O]c2cc(C)oc(=O)c21` [Compound 1c, 4-Amino-2,2-diphenyl-7,10-dimethylpyrane[3,4-h]-1,3,5,6,2-oxathiadiazastannonin-8-one], the “selectivity index (SI) MDA-MB-231” value in series [1] was 4.00. In the series on ss-DNA, the ΔHb was -3.775 ± 0.272 kcal/mol and the “−TΔSb” value is -2.573 kcal/mol. In the series on ss-DNA (from ΔG = −RT ln K), this molecule returned a ΔGb of -6.3474 kcal/mol. Further, the “nature of binding reaction with ss-DNA” value in the series on ss-DNA (ITC titration curve) was “exothermic”. The “selectivity index (SI) MCF-7” value in series [2] was determined as 1.11.

For the molecule `CC1=NN=C(CN)[S][Sn]([CH]2CCCCC2)([CH]2CCCCC2)[O]c2cc(C)oc(=O)c21` [Compound 2d, 2,2-Dicyclohexyl-7,10-dimethyl-4-(aminomethyl) Pyrane[3,4-h]-1,3,5,6,2-oxathiadiazastannonin-8-one], in series [1], the “selectivity index (SI) MDA-MB-231” value amounted to 3.21. Besides, the “selectivity index (SI) MCF-7” value in series [2] amounted to 1.40.

Take `CCC[CH2][Sn]1([CH2]CCC)[O]c2cc(C)oc(=O)c2C(C)=NN=C(CN)[S]1` [Compound 2a, 2,2-Dibutyl-7,10-dimethyl-4-(aminomethyl) Pyrane[3,4-h]-1,3,5,6,2-oxathiadiazastannonin-8-one]: the “selectivity index (SI) MDA-MB-231” value in series [1] was found to be 2.00. Besides, the “selectivity index (SI) MCF-7” value in series [2] stood at 2.95.

With `CCCCCCC[CH2][Sn]1([CH2]CCCCCCC)[O]c2cc(C)oc(=O)c2C(C)=NN=C(NC)[S]1` [Compound 2b, 2,2-Dioctyl-7,10-dimethyl-4-(aminomethyl) Pyrane[3,4-h]-1,3,5,6,2-oxathiadiazastannonin-8-one], the “selectivity index (SI) MCF-7” value in series [2] stood at 8.33.

Consider `CC1=NN=C(N)[S][Sn]([CH2][Si](C)(C)C)([CH2][Si](C)(C)C)[O]c2cc(C)oc(=O)c21` [Compound 1e, 4-Amino-2,2-bis(trimethylsilyl)methyl-7,10-dimethylpyrane[3,4-h]-1,3,5,6,2-oxathiadiazastannonin-8-one], for which, in series [1], the “selectivity index (SI) MDA-MB-231” value amounted to 3.33. The “selectivity index (SI) MCF-7” value in series [2] worked out at 0.77.

`CC1=NN=C(N)[S][Sn]([CH]2CCCCC2)([CH]2CCCCC2)[O]c2cc(C)oc(=O)c21` [Compound 1d, 4-Amino-2,2-dicyclohexyl-7,10-dimethylpyrane[3,4-h]-1,3,5,6,2-oxathiadiazastannonin-8-one]: the “selectivity index (SI) MDA-MB-231” value in series [1] was found to be 1.51.

On to `CCCCCCC[CH2][Sn]1([CH2]CCCCCCC)[O]c2cc(C)oc(=O)c2C(C)=NN=C(Nc2ccccc2)[S]1` [Compound 3b, 2,2-Dioctyl-7,10-dimethyl-4-(aminophenyl) Pyrane[3,4-h]-1,3,5,6,2-oxathiadiazastannonin-8-one], for which the “selectivity index (SI) MDA-MB-231” value in series [1] is listed as 2.96. Moreover, the “selectivity index (SI) MCF-7” value in series [2] was 2.19.

In the case of `CC1=NN=C(CN)[S][Sn]([c]2ccccc2)([c]2ccccc2)[O]c2cc(C)oc(=O)c21` [Compound 2c, 2,2-Diphenyl-7,10-dimethyl-4-(aminomethyl) Pyrane[3,4-h]-1,3,5,6,2-oxathiadiazastannonin-8-one], the “selectivity index (SI) MDA-MB-231” value in series [1] worked out at 1.13. Moreover, the “selectivity index (SI) MCF-7” value in series [2] stood at 1.06.

With `CCC[CH2][Sn]1([CH2]CCC)[O]c2cc(C)oc(=O)c2C(C)=NN=C(N)[S]1` [Compound 1a, 4-Amino-2,2-dibutyl-7,10-dimethylpyrane[3,4-h]-1,3,5,6,2-oxathiadiazastannonin-8-one], the “selectivity index (SI) MCF-7” value in series [2] amounted to 1.23.

For the molecule `N.N.[Cl][Pt][Cl]` [Cisplatin, reference compound], the “selectivity index (SI) MDA-MB-231” value in series [1] was found to be 0.26. Moreover, the “selectivity index (SI) MCF-7” value in series [2] is on record as 1.35.

Take `CCC[CH2][Sn]1([CH2]CCC)[O]c2cc(C)oc(=O)c2C(C)=NN=C(Nc2ccccc2)[S]1` [Compound 3a, 2,2-Dibutyl-7,10-dimethyl-4-(aminophenyl) Pyrane[3,4-h]-1,3,5,6,2-oxathiadiazastannonin-8-one]: in series [1], the “selectivity index (SI) MDA-MB-231” value amounted to 3.40. Further, the “selectivity index (SI) MCF-7” value in series [2] was found to be 1.61.

`CCCCCCC[CH2][Sn]1([CH2]CCCCCCC)[O]c2cc(C)oc(=O)c2C(C)=NN=C(N)[S]1` [Compound 1b, 4-Amino-2,2-dioctyl-7,10-dimethylpyrane-[3,4-h]-1,3,5,6,2-oxathiadiazastannonin-8-one]: in series [1], the “selectivity index (SI) MDA-MB-231” value turned out to be 1.10. In addition, the “selectivity index (SI) MCF-7” value in series [2] amounted to 1.40.

For the molecule `CC1=NN=C(Nc2ccccc2)[S][Sn]([CH]2CCCCC2)([CH]2CCCCC2)[O]c2cc(C)oc(=O)c21` [Compound 3d, 2,2-Dicyclohexyl-7,10-dimethyl-4-(aminophenyl) Pyrane[3,4-h]-1,3,5,6,2-oxathiadiazastannonin-8-one], the “selectivity index (SI) MCF-7” value in series [2] came to 1.00.

As for `CC1=NN=C(CN)[S][Sn]([CH2][Si](C)(C)C)([CH2][Si](C)(C)C)[O]c2cc(C)oc(=O)c21` [Compound 2e, 2,2-Bis(trimethylsilyl)methyl-7,10-dimethyl-4-(aminomethyl) Pyrane[3,4-h]-1,3,5,6,2-oxathiadiazastannonin-8-one], the “selectivity index (SI) MDA-MB-231” value in series [1] was found to be 2.41. In series [2], the “selectivity index (SI) MCF-7” value is on record as 1.93.

As to `CC1=NN=C(Nc2ccccc2)[S][Sn]([c]2ccccc2)([c]2ccccc2)[O]c2cc(C)oc(=O)c21` [Compound 3c, 2,2-Diphenyl-7,10-dimethyl-4-(aminophenyl) Pyrane[3,4-h]-1,3,5,6,2-oxathiadiazastannonin-8-one], the “selectivity index (SI) MDA-MB-231” value in series [1] was 0.51. Besides, the “selectivity index (SI) MCF-7” value in series [2] is reported as 1.56.

Consider `CC1=NN=C(Nc2ccccc2)[S][Sn]([CH2][Si](C)(C)C)([CH2][Si](C)(C)C)[O]c2cc(C)oc(=O)c21` [Compound 3e, 2,2-Bis(trimethylsilyl)methyl-7,10-dimethyl-4-(aminophenyl) Pyrane[3,4-h]-1,3,5,6,2-oxathiadiazastannonin-8-one], for which the “selectivity index (SI) MDA-MB-231” value in series [1] was 1.79. Besides, the “selectivity index (SI) MCF-7” value in series [2] turned out to be 6.25.
